Taken from: PubChem BioAssay AID1259405 (NCATS, 2018)
Purpose: 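Silenced genes that increase secreted GFP made by CHO cells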 (primary screen). System: Chinese hamster CHO-K1 ovary cells with stable secreted eGFP expression. Reagents: single siRNA against mouse genes, 0.8 pmol siRNA per well (2 µl of 400 nM stock). Duration: 3 days. Detection: 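Percent of the per-plate non-targeting control median for intracellular GFP per well by laser scanning cytometry and for cell viability by ATP luminescence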. Scale: GFP, % of control: higher = more GFP per well, higher productivity; viability (ATP), % of control: higher = more viable cells (more ATP). Rule for the call: 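a knock-down is called active if GFP reaches 120% or more of non-targeting control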.
Shown is an unselected part of about 50,000 reagents tested. About 4,000 of all reagents (8%) were called active. 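Mouse siRNA library applied to hamster cells; one well for each siRNA.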 Reagents against one gene are numbered here. No sequences are given here.

gene	reagent no.	GFP, % of control	viability (ATP), % of control	Call
Kcnj2	1	122	60	active
Kcnj2	2	30.1	35.4	inactive
Kcnj2	3	72.9	78.8	inactive
Tubd1	1	71.6	102	inactive
Tubd1	2	0.185	17.7	inactive
Rbl2	1	61.5	75.9	inactive
Rbl2	2	72.7	51.7	inactive
Rbl2	3	93.7	96.9	inactive
Klhl7	1	59	72.7	inactive
Klhl7	2	64.3	65.4	inactive
Klhl7	3	101	81.1	inactive
Camk1d	1	155	103	active
Camk1d	2	50.9	35	inactive
Camk1d	3	82.9	69.5	inactive
Prdm8	1	78.9	69	inactive
Prdm8	2	75.2	74.9	inactive
Prdm8	3	80.5	90.5	inactive
Phkg1	1	103	89.8	inactive
Nsfl1c	1	78	67	inactive
Nsfl1c	2	78.8	86.3	inactive
Actg2	1	63.9	51.6	inactive
Actg2	2	90.2	77.9	inactive
Actg2	3	105	63.2	inactive
Med17	1	90.8	87.3	inactive
Med17	2	78.9	75.3	inactive
Lif	1	107	102	inactive
Lif	2	83.9	77.2	inactive
Dnajc22	1	78.1	65.2	inactive
Dnajc22	2	39.4	41.5	inactive
Dnajc22	3	52.6	64.1	inactive
Tsbp1	1	60.7	91.1	inactive
Tsbp1	2	150	144	active
Tsbp1	3	82.4	94.8	inactive
Net1	1	68.1	59.8	inactive
Net1	2	75.5	85.7	inactive
Net1	3	58.8	59.9	inactive
Crhr1	1	61.2	59.6	inactive
Crhr1	2	51.2	63.6	inactive
Crhr1	3	49.5	59.4	inactive
Setd1a	1	47.7	23.9	inactive
Setd1a	2	111	109	inactive
Setd1a	3	32.6	21.6	inactive
Ints6l	1	45.7	26.6	inactive
Ints6l	2	91.3	104	inactive
Ints6l	3	66.2	78.5	inactive
Tacr3	1	84.9	97	inactive
Tacr3	2	66	78.4	inactive
Tacr3	3	13.6	10.6	inactive
Zc3h6	1	101	57.2	inactive
Zc3h6	2	30.8	35.1	inactive
Zc3h6	3	79	93.6	inactive
Foxk1	1	59.4	36.7	inactive
Foxk1	2	22.5	61.7	inactive
Foxk1	3	74.7	81	inactive
Fn3krp	1	80.1	102	inactive
Fn3krp	2	56.6	61.4	inactive
Gm5478	1	66.2	54.4	inactive
Gm5478	2	39.3	30.5	inactive
Gm5478	3	74.3	83	inactive
Nucb2	1	132	122	active
Nucb2	2	94.9	89.5	inactive
Or10al4	1	62	24.8	inactive
Or10al4	2	151	71.2	active
Or10al4	3	57.3	38	inactive

The list goes on (9 carried over from the part before).
gene	reagent no.	GFP, % of control	viability (ATP), % of control	Call
Fn3krp	2	56.6	61.4	inactive
Gm5478	1	66.2	54.4	inactive
Gm5478	2	39.3	30.5	inactive
Gm5478	3	74.3	83	inactive
Nucb2	1	132	122	active
Nucb2	2	94.9	89.5	inactive
Or10al4	1	62	24.8	inactive
Or10al4	2	151	71.2	active
Or10al4	3	57.3	38	inactive
Psma4	1	51.6	44.8	inactive
Psma4	2	6.29	3.27	inactive
Psma4	3	97.5	48	inactive
Rhot2	1	137	112	active
Rhot2	2	92.9	104	inactive
Rhot2	3	96.3	69.8	inactive
Tusc2	1	153	92.1	active
Tusc2	2	84.7	71.1	inactive
Tusc2	3	75.5	84.6	inactive
Epb41l4a	1	69.7	85	inactive
Epb41l4a	2	25.4	18	inactive
Epb41l4a	3	86.8	86.5	inactive
Gale	1	76.7	92.1	inactive
Gale	2	48.1	46.7	inactive
Itpr1	1	141	78.2	active
Itpr1	2	86.3	60.9	inactive
Itpr1	3	85.8	46.5	inactive
Psg16	1	59.7	56.8	inactive
Psg16	2	55.5	46.9	inactive
Psg16	3	51.6	85.3	inactive
Defa-rs12	1	74.6	71.7	inactive
Defa-rs12	2	50	35.7	inactive
Defa-rs12	3	46.7	59.4	inactive
Gm5800	1	38.4	42.3	inactive
Gm5800	2	102	43.6	inactive
Gm5800	3	103	45.1	inactive
Ylpm1	1	41.6	84.8	inactive
Ylpm1	2	61.7	72.8	inactive
Ylpm1	3	36.7	73.8	inactive
Cimip2b	1	84.6	69.8	inactive
Cimip2b	2	18.2	19.4	inactive
Cimip2b	3	66.8	68.1	inactive
Apbb1ip	1	31.4	15.8	inactive
Apbb1ip	2	83.1	53.1	inactive
Apbb1ip	3	65.9	60.2	inactive
Or10c1	1	108	98.2	inactive
Or10c1	2	55.6	59.3	inactive
Or10c1	3	74.2	101	inactive
Trub2	1	128	99.6	active
Trub2	2	52.8	70.1	inactive
Trub2	3	24.5	40.7	inactive
Chrna3	1	95.1	91.8	inactive
Chrna3	2	43.9	40.9	inactive
Chrna3	3	82.9	86.3	inactive
